# Results: patent US8211606B2, “Coloring compound, yellow toner, sheet for heat-sensitive transfer recording, and ink” (Canon Kabushiki Kaisha, priority 2007, dated 2012)
# Experiment: Color tone evaluation of coloring compound applied on CLC color copy paper (chroma c* at L*=88)
# Conditions: c* value in L*=88; 0.04 mol/L solution in tetrahydrofuran/cyclohexanone applied on CLC color copy paper
# Method: A coloring compound was dissolved in tetrahydrofuran/cyclohexanone (=1/1 (v/v)) to prepare a 0.04 mol/L solution, which was then filtered with a filter (Φ0.2 μm). The prepared coloring compound solution was applied on CLC color copy paper (manufactured by Canon Inc.) by means of an applicator (0.1 mm). Subsequently, a solution in which part of the coloring compound solution was diluted 2-fold was prepared and applied in the same manner. This operation was repeated to prepare a color tone evaluation sample. The sample was then air-dried overnight and analyzed by using SpectroLino (manufactured by Gretag Machbeth). Optical density and chromaticity (L*, a*, b*) were determined on the basis of the L*a*b* color system. Chroma (c*) was calculated according to the following equation on the basis of measurements of the color characteristics. Chroma(c*)=√{square root over ({(a*)^2+(b*)^2})}{square root over ({(a*)^2+(b*)^2})}
# The evaluation was performed as below.
# For the same L* value, a larger c* value can be said to indicate a better color tone. The color tone was evaluated using the value of c* in L*=88.
# A: The c* value is 80 or more.
# B: The c* value is 75 or more and less than 80.
# C: The c* value is less than 75.
# A c* value of 75 or more in L*=88 was determined to indicate a good color tone.
row,SMILES,Color Tone
1,CCCCC(CC)Cn1c(O)c(/N=N/c2ccccc2[N+](=O)[O-])c(C)c(C(N)=O)c1=O (centres unmarked) [Compound (4)],A (The c* value is 80 or more.)
2,CCn1c(O)c(N=Nc2ccc(C(F)(F)F)cc2[N+](=O)[O-])c(-c2ccccc2)c(C(=O)NC(C)(C)C)c1=O [(13)],A (The c* value is 80 or more.)
3,CCCCC(CC)Cn1c(O)c(/N=N/c2ccc(C(F)(F)F)cc2[N+](=O)[O-])c(C)c(C(=O)NC(C)(C)C)c1=O (centres unmarked) [Compound (5)],A (The c* value is 80 or more.)
4,CCCCC(CC)Cn1c(O)c(N=Nc2ccccc2[N+](=O)[O-])c(C)c(C(=O)NC2CCCC2)c1=O (centres unmarked) [(17)],A (The c* value is 80 or more.)
5,CCCCC(CC)Cn1c(O)c(N=Nc2ccc(C#N)cc2[N+](=O)[O-])c(C)c(C(N)=O)c1=O (centres unmarked) [(11)],A (The c* value is 80 or more.)
6,CCCCC(C)(CC)NC(=O)c1c(C)c(N=Nc2ccc(C(F)(F)F)cc2[N+](=O)[O-])c(O)[nH]c1=O (centres unmarked) [(14)],A (The c* value is 80 or more.)
7,CCCCC(CC)Cn1c(O)c(N=Nc2cc(F)c(F)cc2[N+](=O)[O-])c(C)c(C(N)=O)c1=O (centres unmarked) [(7)],B (The c* value is 75 or more and less than 80.)
8,CCCCC(CC)Cn1c(O)c(N=Nc2ccc(C(F)(F)F)cc2[N+](=O)[O-])c(C)c(C(N)=O)c1=O (centres unmarked) [(12)],A (The c* value is 80 or more.)
9,"CCn1c(O)c(/N=N/c2ccccc2[N+](=O)[O-])c(C)c(C(N)=O)c1=O [(2), reference compound]",B (The c* value is 75 or more and less than 80.)
10,CCCCC(CC)Cn1c(O)c(N=Nc2ccc(C(F)(F)F)cc2[N+](=O)[O-])c(C)c(C(=O)NCc2ccccc2)c1=O (centres unmarked) [(18)],A (The c* value is 80 or more.)
11,"CCCCC(CC)Cn1c(O)c(/N=N/c2ccccc2[N+](=O)[O-])c(C)c(C#N)c1=O (centres unmarked) [Comparative Compound (1), reference compound]",C (The c* value is less than 75.)
12,CCCCC(CC)Cn1c(O)c(N=Nc2c(Br)cc(C(F)(F)F)cc2[N+](=O)[O-])c(C)c(C(N)=O)c1=O (centres unmarked) [(10)],A (The c* value is 80 or more.)
13,Cc1c(N=Nc2ccccc2[N+](=O)[O-])c(O)n(-c2ccccc2)c(=O)c1C(N)=O [(15)],A (The c* value is 80 or more.)
14,CCCCC(CC)Cn1c(O)c(N=Nc2c([N+](=O)[O-])cc(F)c(F)c2F)c(C)c(C(N)=O)c1=O (centres unmarked) [(8)],B (The c* value is 75 or more and less than 80.)
15,Cc1c(N=Nc2ccccc2[N+](=O)[O-])c(O)n(Cc2ccccc2)c(=O)c1C(N)=O [(16)],A (The c* value is 80 or more.)
16,CCCCC(CC)Cn1c(O)c(N=Nc2c([N+](=O)[O-])cc(C(F)(F)F)cc2[N+](=O)[O-])c(C)c(C(N)=O)c1=O (centres unmarked) [(9)],A (The c* value is 80 or more.)
17,CCCCC(CC)Cn1c(O)c(/N=N/c2ccc(F)cc2[N+](=O)[O-])c(C)c(C(N)=O)c1=O (centres unmarked) [Compound (6)],B (The c* value is 75 or more and less than 80.)

# Some entries repeat one wording, which the source may state once for all of them.
